Source: article PMC4108472, “Characterization of a Novel BCHE “Silent” Allele: Point Mutation (p.Val204Asp) Causes Loss of Activity and Prolonged Apnea with Suxamethonium” (PLoS ONE, 2014)
These are yes or no findings as the source states them, for the method shown. Some entries that bind do so weakly or less than the wild type.

The chains behind the UniProt entries cited, without tags or fusion partners. Residues count along the entry.
UniProt P02768, residues 25-609: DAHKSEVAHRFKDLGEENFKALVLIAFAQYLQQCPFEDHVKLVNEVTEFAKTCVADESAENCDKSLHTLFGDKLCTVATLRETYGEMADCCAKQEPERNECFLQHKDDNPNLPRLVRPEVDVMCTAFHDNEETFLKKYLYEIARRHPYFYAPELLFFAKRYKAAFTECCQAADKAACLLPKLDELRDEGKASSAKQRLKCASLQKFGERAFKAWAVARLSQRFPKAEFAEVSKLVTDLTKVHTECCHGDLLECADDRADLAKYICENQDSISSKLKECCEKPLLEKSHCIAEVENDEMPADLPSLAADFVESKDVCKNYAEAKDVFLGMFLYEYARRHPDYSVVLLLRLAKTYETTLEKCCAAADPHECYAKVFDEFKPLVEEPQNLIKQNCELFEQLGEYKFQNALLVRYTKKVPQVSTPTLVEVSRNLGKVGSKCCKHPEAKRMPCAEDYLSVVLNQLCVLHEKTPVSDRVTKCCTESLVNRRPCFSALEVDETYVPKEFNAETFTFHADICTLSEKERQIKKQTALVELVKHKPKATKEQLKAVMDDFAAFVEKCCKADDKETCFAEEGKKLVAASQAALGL
UniProt P06276, residues 29-602: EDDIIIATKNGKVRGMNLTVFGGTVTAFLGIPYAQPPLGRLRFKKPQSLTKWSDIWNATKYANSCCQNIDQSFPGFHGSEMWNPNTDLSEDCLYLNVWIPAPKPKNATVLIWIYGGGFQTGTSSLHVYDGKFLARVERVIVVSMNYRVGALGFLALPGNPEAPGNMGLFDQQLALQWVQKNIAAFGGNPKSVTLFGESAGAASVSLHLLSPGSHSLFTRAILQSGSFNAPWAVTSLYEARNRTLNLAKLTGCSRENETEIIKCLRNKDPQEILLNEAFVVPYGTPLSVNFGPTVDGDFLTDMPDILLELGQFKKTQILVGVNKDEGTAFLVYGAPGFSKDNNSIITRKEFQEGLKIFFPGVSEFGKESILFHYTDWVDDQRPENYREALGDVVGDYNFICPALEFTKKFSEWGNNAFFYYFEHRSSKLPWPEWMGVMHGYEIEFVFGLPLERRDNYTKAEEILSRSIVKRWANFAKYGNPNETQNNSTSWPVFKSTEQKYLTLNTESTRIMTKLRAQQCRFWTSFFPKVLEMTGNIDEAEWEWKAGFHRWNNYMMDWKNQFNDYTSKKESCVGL

Target: albumin of human plasma (human (endogenous in plasma)) (UniProt P02768)
Assay: native gel or EMSA; nondenaturing gradient gel (4–30%) of plasma samples (5 µL/lane), bands stained for BChE activity with BTC as the substrate

With “Butyrylcholinesterase (usual, wild-type) of human plasma (from UniProt P06276 29-602) (enzyme)” the binding was “binds”.
